Measurements reported in PubChem BioAssay AID1259254 (NCATS, 2017).
Assay: 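Genome-wide screen for genes that prevent DNA re-replication in cancer cells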 (primary screen). System: human HCT116 colorectal cancer cells. Knock-down reagent: single siRNA against human genes. Time to read-out: 3 days. Measured: 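Nuclei stained with Hoechst and imaged; cell-cycle phase assigned by DNA content; G2 share scaled per plate, non-targeting siRNA 0%, GMNN siRNA 100%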. Reading the numbers: G2 robust z-score and G2 cells, % of GMNN control: higher = more G2 cells, more excess DNA replication; raw share of cells in G2: higher = larger share of cells with G2 DNA content. Active means: 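An siRNA counts as active if its G2 robust z-score lies at least 5 MADs above the screen median; here such calls match roughly 38% of GMNN control or more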.
This is one part, drawn at random, of about 59,000 deposited reagents. About 1,550 of all reagents (2.6%) count as active. 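G2 share is only a proxy for re-replication; each gene was hit by three separate siRNAs, and active genes were retested.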 The raw values are shown without normalisation. A number with no mark means an inactive call. No sequences are given here. Not given: the amount of reagent.

no.	target gene	PubChem SID	G2 robust z-score	G2 cells, % of GMNN control	raw share of cells in G2 (%)
1	LYPD5 (LY6/PLAUR domain containing 5)	SID160732969	-0.592	-1.2	2.9
2	LYPD5 (LY6/PLAUR domain containing 5)	SID160763274	3.65	28.6	14.1
3	LYPD5 (LY6/PLAUR domain containing 5)	SID160763275	2.11	17.8	9.93
4	NOL4L-DT (NOL4L divergent transcript)	SID160758884	1.57	14	8.53
5	NOL4L-DT (NOL4L divergent transcript)	SID160758885	3.64	28.6	11.7
6	NOL4L-DT (NOL4L divergent transcript)	SID160758886	0.247	4.71	4.71
7	RUNX1T1 (RUNX1 partner transcriptional co-repressor 1)	SID160737108	0.0732	3.48	4.84
8	RUNX1T1 (RUNX1 partner transcriptional co-repressor 1)	SID160737119	-0.896	-3.34	3.28
9	RUNX1T1 (RUNX1 partner transcriptional co-repressor 1)	SID160737130	0.818	8.72	6.27
10	ZSWIM7 (zinc finger SWIM-type containing 7)	SID160756314	-0.51	-0.623	3.84
11	ZSWIM7 (zinc finger SWIM-type containing 7)	SID160756316	0.301	5.08	4.84
12	ZSWIM7 (zinc finger SWIM-type containing 7)	SID160756317	-0.536	-0.803	1.58
13	WRAP53 (WD repeat containing antisense to TP53)	SID160743026	-0.381	0.287	4.63
14	WRAP53 (WD repeat containing antisense to TP53)	SID160743027	-0.217	1.44	4.73
15	WRAP53 (WD repeat containing antisense to TP53)	SID160743028	2.38	19.7	9.42
16	AKAIN1 (A-kinase anchor inhibitor 1)	SID160768646	-1.01	-4.12	2.03
17	AKAIN1 (A-kinase anchor inhibitor 1)	SID160768647	0.353	5.45	5.48
18	AKAIN1 (A-kinase anchor inhibitor 1)	SID160768648	-0.661	-1.68	2.55
19	CCDC154 (coiled-coil domain containing 154)	SID160769681	0.951	9.66	7.42
20	CCDC154 (coiled-coil domain containing 154)	SID160769682	-0.00467	2.93	4.31
21	CCDC154 (coiled-coil domain containing 154)	SID160769683	-0.443	-0.151	3
22	BCAN (brevican)	SID160747202	-0.332	0.628	4.85
23	BCAN (brevican)	SID160747203	0.259	4.79	6.76
24	BCAN (brevican)	SID160747206	0.436	6.04	4.29
25	UNC13A (unc-13 homolog A)	SID160735263	-0.201	1.55	4.4
26	UNC13A (unc-13 homolog A)	SID160735264	-1.13	-4.95	4.38
27	UNC13A (unc-13 homolog A)	SID160735265	1.88	16.2	9.58
28	TMEM209 (transmembrane protein 209)	SID160752960	-0.468	-0.328	3.94
29	TMEM209 (transmembrane protein 209)	SID160752962	0.648	7.53	5.36
30	TMEM209 (transmembrane protein 209)	SID160752963	1.03	10.2	6.17
31	MCEE (methylmalonyl-CoA epimerase)	SID160735112	-0.129	2.06	3.03
32	MCEE (methylmalonyl-CoA epimerase)	SID160752609	0.603	7.21	6.51
33	MCEE (methylmalonyl-CoA epimerase)	SID160752610	-0.564	-0.997	3.16

Reformatted: entries from further up.
LYPD5 (LY6/PLAUR domain containing 5) [SID160763275]
- G2 robust z-score: 2.11
- G2 cells, % of GMNN control: 17.8
- raw share of cells in G2 (%): 9.93

NOL4L-DT (NOL4L divergent transcript) [SID160758884]
- G2 robust z-score: 1.57
- G2 cells, % of GMNN control: 14
- raw share of cells in G2 (%): 8.53

NOL4L-DT (NOL4L divergent transcript) [SID160758885]
- G2 robust z-score: 3.64
- G2 cells, % of GMNN control: 28.6
- raw share of cells in G2 (%): 11.7

NOL4L-DT (NOL4L divergent transcript) [SID160758886]
- G2 robust z-score: 0.247
- G2 cells, % of GMNN control: 4.71
- raw share of cells in G2 (%): 4.71

RUNX1T1 (RUNX1 partner transcriptional co-repressor 1) [SID160737108]
- G2 robust z-score: 0.0732
- G2 cells, % of GMNN control: 3.48
- raw share of cells in G2 (%): 4.84

RUNX1T1 (RUNX1 partner transcriptional co-repressor 1) [SID160737119]
- G2 robust z-score: -0.896
- G2 cells, % of GMNN control: -3.34
- raw share of cells in G2 (%): 3.28

The list goes on.
no.	target gene	PubChem SID	G2 robust z-score	G2 cells, % of GMNN control	raw share of cells in G2 (%)
34	SPATC1L (spermatogenesis and centriole associated 1 like)	SID160724608	0.101	3.68	4.55
35	SPATC1L (spermatogenesis and centriole associated 1 like)	SID160724609	-0.612	-1.34	2
36	SPATC1L (spermatogenesis and centriole associated 1 like)	SID160751900	0.382	5.66	5.99
37	NAALADL1 (N-acetylated alpha-linked acidic dipeptidase like 1)	SID160723734	0.141	3.96	6.94
38	NAALADL1 (N-acetylated alpha-linked acidic dipeptidase like 1)	SID160723741	2.19	18.3	11.4
39	NAALADL1 (N-acetylated alpha-linked acidic dipeptidase like 1)	SID160730392	-0.349	0.512	4.1
40	ZNRF1 (zinc and ring finger 1)	SID160752986	-0.076	2.43	3.65
41	ZNRF1 (zinc and ring finger 1)	SID160752987	-0.554	-0.927	5.49
42	ZNRF1 (zinc and ring finger 1)	SID160752988	-0.0964	2.29	4.35
43	ARSB (arylsulfatase B)	SID160720328	0.867	9.07	7.81
44	ARSB (arylsulfatase B)	SID160720340	0.521	6.63	7.43
45	ARSB (arylsulfatase B)	SID160720350	-0.513	-0.642	3.75
46	DOT1L (DOT1 like histone lysine methyltransferase)	SID160752258	2.97	23.9	12.8
47	DOT1L (DOT1 like histone lysine methyltransferase)	SID160752259	-0.243	1.26	5.25
48	DOT1L (DOT1 like histone lysine methyltransferase)	SID160752260	2.26	18.8	13.3
49	TASL (TLR adaptor interacting with endolysosomal SLC15A4)	SID160750263	-0.152	1.9	5.23
50	TASL (TLR adaptor interacting with endolysosomal SLC15A4)	SID160750264	0.558	6.89	7.32
51	TASL (TLR adaptor interacting with endolysosomal SLC15A4)	SID160750265	4.41	34	11.7
52	FITM1 (fat storage inducing transmembrane protein 1)	SID160759830	0.39	5.71	5.65
53	FITM1 (fat storage inducing transmembrane protein 1)	SID160759831	0.949	9.64	6.19
54	FITM1 (fat storage inducing transmembrane protein 1)	SID160759832	-0.436	-0.103	2.73
55	MS4A12 (membrane spanning 4-domains A12)	SID160742345	-0.0639	2.52	7.53
56	MS4A12 (membrane spanning 4-domains A12)	SID160742346	-0.241	1.27	4.9
57	MS4A12 (membrane spanning 4-domains A12)	SID160742347	-0.0614	2.54	5.39
58	SRPX2 (sushi repeat containing protein X-linked 2)	SID160738643	-0.347	0.523	6.4
59	SRPX2 (sushi repeat containing protein X-linked 2)	SID160738644	0.064	3.42	5.32
60	SRPX2 (sushi repeat containing protein X-linked 2)	SID160738646	-0.989	-3.99	2.68
61	BKGD (beta-keto-L-gulonate decarboxylase)	SID160738898	-1.31	-6.25	1.47
62	BKGD (beta-keto-L-gulonate decarboxylase)	SID160738899	-0.696	-1.93	3.82
63	BKGD (beta-keto-L-gulonate decarboxylase)	SID160738900	-0.248	1.22	3.64
64	MYBBP1A (MYB binding protein 1a)	SID160728615	1.33	12.3	11.3
65	MYBBP1A (MYB binding protein 1a)	SID160728616	-0.71	-2.03	4.81
66	MYBBP1A (MYB binding protein 1a)	SID160728617	0.691	7.83	6.37
67	IFITM1 (interferon induced transmembrane protein 1)	SID160720224	6.15 (active)	46.3	25.6
68	IFITM1 (interferon induced transmembrane protein 1)	SID160720225	-1.11	-4.85	1.97
69	IFITM1 (interferon induced transmembrane protein 1)	SID160735139	3.44	27.2	12.9
